# Assay results as given in patent US20220312767A1, “PYRIDAZINE COMPOUNDS AND HERBICIDES” (Nippon Soda Co., Ltd., priority 2019, published 2022).
# Some entries share one result that the patent states for a list of compounds.
# Tested on: Abutilon theophrasti
# Assay: Foliage treatment test (Test Example 1), foliage spray
# Assay type: in vivo
# Conditions: 250 g per hectare, three weeks after, fresh grass mass of aerial part vs untreated
row,SMILES,Herbicidal ratio against Abutilon theophrasti [%]
1,CC(C)C(=O)OCOc1c(-c2ccc(C(F)(F)F)cc2S(C)(=O)=O)cnn(C)c1=O [Compound A-5],≥ 90
2,COCCOc1c(S(C)(=O)=O)ccc(-c2cnn(C)c(=O)c2OC(C)OC(=O)OC)c1Cl (stereo not drawn) [Compound A-8],≥ 90
3,COC(=O)OC(C)Oc1c(-c2ccc(C(F)(F)F)c(NC(=O)C3CC3)c2C)cnn(C)c1=O (stereo not drawn) [Compound A-9],≥ 90
4,COC(=O)OCOc1c(-c2ccc(C(F)(F)F)cc2S(C)(=O)=O)cnn(C)c1=O [Compound A-3],≥ 90
5,COC(=O)OC(C)Oc1c(-c2ccc(S(C)(=O)=O)c(C3=NOCC3)c2Cl)cnn(C)c1=O (stereo not drawn) [Compound A-7],≥ 90
6,CC(OC(=O)C(C)C)Oc1c(-c2ccc(C(F)(F)F)cc2S(C)(=O)=O)cnn(C)c1=O (stereo not drawn) [Compound A-1],≥ 90
